Data published in US20120100989A1, “3-Aryl-4-(2-thienylmethylene)isoxazol-5(4H)-ones as Fungicides” (Bayer CropScience AG, priority 2010, published 2012).
Some results were stated once for a whole list of compounds, not compound by compound. For some of these results: For at least one compound, name, drawing or mass did not settle the structure.

How the values were obtained:
Alternaria solani = experiment: Alternaria test (tomato)/protective; assay type: in vivo; details: protective, 500 ppm active compound, evaluation 7 days after inoculation
Method: Alternaria Test (Tomato)/Protective [table] To produce a suitable preparation of active compound, 1 part by weight of active compound is mixed with the stated amounts of solvent and emulsifier, and the concentrate is diluted with water to the desired concentration. To test for protective activity, young tomato plants are sprayed with the active compound preparation at the stated application rate. 1 day after the treatment, the plants are inoculated with a spore suspension of Alternaria solani and then remain at 100% relative humidity and 20° C. for 24 h. The plants then remain at 96% relative atmospheric humidity and a temperature of 20° C.

Plasmopara viticola = experiment: Plasmopara test (grapevine)/protective; assay type: in vivo; details: protective, 100 ppm active compound, evaluation 6 days after inoculation
Method: Plasmopara Test (Grapevine)/Protective [table] To produce a suitable preparation of active compound, 1 part by weight of active compound is mixed with the stated amounts of solvent and emulsifier, and the concentrate is diluted with water to the desired concentration. To test for protective activity, young plants are sprayed with the active compound preparation at the stated application rate. After the spray coating has dried on, the plants are inoculated with an aqueous spore suspension of Plasmopara viticola and then remain in an incubation cabin at about 20° C. and 100% relative atmospheric humidity for 1 day. The plants are then placed in a greenhouse at about 21° C. and about 90% atmospheric humidity for 4 days. The plants are then moistened and placed in an incubation cabin for 1 day.

Leptosphaeria nodorum = experiment: In vitro test for determining the ED50 value with Leptosphaeria nodorum; assay type: cell-based; details: microtitre plates, glucose/peptone medium, 6 days, 20° C., absorbance 620 nm
[1] = system: larvae of the mustard beetle (Phaedon cochleariae); experiment: Phaedon test (spray treatment); assay type: in vivo; details: Chinese cabbage discs, application rate 500 g/ha
Venturia inaegualis = experiment: Venturia test (apple)/protective; assay type: in vivo; details: protective, 100 ppm active compound, evaluation 10 days after inoculation
Method: Venturia Test (Apple)/Protective [table] To produce a suitable preparation of active compound, 1 part by weight of active compound is mixed with the stated amounts of solvent and emulsifier, and the concentrate is diluted with water to the desired concentration. To test for protective activity, young plants are sprayed with the active compound preparation at the stated application rate. After the spray coating has dried on, the plants are inoculated with an aqueous conidia suspension of the apple scab pathogen Venturia inaegualis and then remain in an incubation cabin at about […] and 100% relative atmospheric humidity for 1 day. The plants are then placed in the greenhouse at about 21° C. and a relative atmospheric humidity of about 90%.

[2] = system: Blumeria graminis f sp. tritici; experiment: Blumeria test (wheat)/protective; assay type: in vivo; details: protective, 1000 ppm active compound, evaluation 7 days after inoculation
Method: Blumeria Test (Wheat)/Protective [table] To produce a suitable preparation of active compound, 1 part by weight of active compound is mixed with the stated amounts of solvent and emulsifier, and the concentrate is diluted with water to the desired concentration. To test for protective activity, young plants are sprayed with the active compound preparation at the stated application rate. After the spray coating has dried on, the plants are dusted with spores of Blumeria graminis f sp. tritici.

[3] = system: larvae of the cotton bollworm (Heliothis virescens); experiment: Heliotis virescens test (spray treatment); assay type: in vivo; details: soya bean leaves, application rate 500 g/ha

## O=C1ON=C(c2cc(F)ccc2Cl)C1=Cc1sccc1Cl [I-136]
Alternaria solani
  efficacy: ≥ 70%

## O=C1ON=C(c2ccc(F)cc2)C1=Cc1cccs1 [I-2]
Plasmopara viticola
  efficacy: ≥ 70%

## COc1cc(OC)cc(C2=NOC(=O)C2=Cc2cccs2)c1 [U-21]
Alternaria solani
  efficacy: ≥ 70%

## Cc1ccsc1C=C1C(=O)ON=C1c1cccc(C(F)(F)F)c1 [I-91]
Alternaria solani
  efficacy: ≥ 70%

## O=C1ON=C(c2ccccc2Cl)C1=Cc1ccc(Br)s1 [I-103]
Leptosphaeria nodorum
  ED50 value (Effective Dose which causes 50% inhibition of growth): less than 1 ppm

## Cc1ccc(C=C2C(=O)ON=C2c2ccc(F)cc2)s1 [I-33]
[1]
  activity (beetle larvae killed): > 80%

## COc1ccc(C2=NOC(=O)/C2=C\c2cccs2)cc1 [U-38]
Plasmopara viticola
  efficacy: ≥ 70%

## Cc1ccc(C=C2C(=O)ON=C2c2ccccc2Cl)s1 [I-8]
Leptosphaeria nodorum
  ED50 value (Effective Dose which causes 50% inhibition of growth): less than 1 ppm

## O=C1ON=C(c2c(F)cccc2F)C1=Cc1cccs1 [I-59]
Alternaria solani
  efficacy: ≥ 70%
Plasmopara viticola
  efficacy: ≥ 70%

## Cc1ccsc1C=C1C(=O)ON=C1c1ccccc1Cl [I-18]
Leptosphaeria nodorum
  ED50 value (Effective Dose which causes 50% inhibition of growth): less than 1 ppm

## O=C1ON=C(c2cc(F)ccc2Cl)C1=Cc1cccs1 [I-127]
Alternaria solani
  efficacy: ≥ 70%

## CC(C)(C)c1ccc(C2=NOC(=O)C2=Cc2cccs2)cc1 [I-29]
[1]
  activity (beetle larvae killed): > 80%

## O=C1ON=C(c2ccc(C(F)(F)F)cc2)C1=Cc1cccs1 [I-56]
Venturia inaegualis
  efficacy: ≥ 70%
Plasmopara viticola
  efficacy: ≥ 70%

## Cc1ccc(C2=NOC(=O)C2=Cc2ccc(C)s2)cc1 [U-10]
Alternaria solani
  efficacy: ≥ 70%

## O=C1ON=C(c2cccc(Cl)c2)C1=Cc1cccs1 [I-3]
Venturia inaegualis
  efficacy: ≥ 70%
Plasmopara viticola
  efficacy: ≥ 70%

## Cc1ccsc1C=C1C(=O)ON=C1c1c(F)cccc1F [I-73]
Venturia inaegualis
  efficacy: ≥ 70%
Plasmopara viticola
  efficacy: ≥ 70%

## O=C1ON=C(c2ccccc2Cl)C1=Cc1ccc(Cl)s1 [I-9]
Leptosphaeria nodorum
  ED50 value (Effective Dose which causes 50% inhibition of growth): less than 1 ppm
Plasmopara viticola
  efficacy: ≥ 70%

## O=C1ON=C(c2ccccc2)C1=Cc1cccs1 [U-1]
Leptosphaeria nodorum
  ED50 value (Effective Dose which causes 50% inhibition of growth): less than 1 ppm
[2]
  efficacy: ≥ 70%
Plasmopara viticola
  efficacy: ≥ 70%

## O=C1ON=C(c2c(F)cccc2F)C1=Cc1ccc(Br)s1 [I-72]
Venturia inaegualis
  efficacy: ≥ 70%

## O=C1ON=C(c2cc(F)ccc2Cl)C1=Cc1ccc(Br)s1 [I-129]
Alternaria solani
  efficacy: ≥ 70%

## O=C1ON=C(c2ccc(F)cc2)C1=Cc1ccc([N+](=O)[O-])s1 [I-54]
Venturia inaegualis
  efficacy: ≥ 70%
Alternaria solani
  efficacy: ≥ 70%

## O=C1ON=C(c2ccccc2C(F)(F)F)C1=Cc1cccs1 [I-21]
Venturia inaegualis
  efficacy: ≥ 70%
[2]
  efficacy: ≥ 70%
Plasmopara viticola
  efficacy: ≥ 70%

## Cc1ccc(C=C2C(=O)ON=C2c2c(F)cccc2F)s1 [I-78]
Plasmopara viticola
  efficacy: ≥ 70%

## CSc1ccsc1C=C1C(=O)ON=C1c1ccccc1Cl [I-16]
Leptosphaeria nodorum
  ED50 value (Effective Dose which causes 50% inhibition of growth): less than 1 ppm

## COc1ccc(C2=NOC(=O)C2=Cc2cccs2)cc1 [U-37]
[3]
  activity (killed): ≥ 80%

## O=C1ON=C(c2cc(Cl)ccc2Cl)C1=Cc1cccs1 [I-35]
Alternaria solani
  efficacy: ≥ 70%

## O=C1ON=C(c2ccc([N+](=O)[O-])cc2)/C1=C/c1cccs1 [U-40]
Alternaria solani
  efficacy: ≥ 70%

## O=C1ON=C(c2cc(F)ccc2F)C1=Cc1cccs1 [I-126]
Leptosphaeria nodorum
  ED50 value (Effective Dose which causes 50% inhibition of growth): less than 1 ppm

## CSCc1sc(C=C2C(=O)ON=C2c2ccccc2Cl)cc1Br [I-13]
Leptosphaeria nodorum
  ED50 value (Effective Dose which causes 50% inhibition of growth): less than 1 ppm

## Cc1ccsc1C=C1C(=O)ON=C1c1cc(F)ccc1Cl [I-130]
Alternaria solani
  efficacy: ≥ 70%

## CC(C)(C)c1ccc(C2=NOC(=O)C2=Cc2ccc(Cl)s2)cc1 [I-40]
Alternaria solani
  efficacy: ≥ 70%

## Cc1ccccc1C1=NOC(=O)C1=Cc1cccs1 [I-23]
Leptosphaeria nodorum
  ED50 value (Effective Dose which causes 50% inhibition of growth): less than 1 ppm
Plasmopara viticola
  efficacy: ≥ 70%

## Cc1ccc(C2=NOC(=O)C2=Cc2cccs2)c(C)c1 [I-90]
Venturia inaegualis
  efficacy: ≥ 70%
Alternaria solani
  efficacy: ≥ 70%

## Cc1ccc(C2=NOC(=O)C2=Cc2ccc([N+](=O)[O-])s2)cc1 [U-18]
Alternaria solani
  efficacy: ≥ 70%

## O=C1ON=C(c2ccccc2F)C1=Cc1ccc(Cl)s1 [I-106]
Leptosphaeria nodorum
  ED50 value (Effective Dose which causes 50% inhibition of growth): less than 1 ppm

## Cc1c(C=C2C(=O)ON=C2c2ccccc2Cl)sc2ccccc12 [I-140]
Leptosphaeria nodorum
  ED50 value (Effective Dose which causes 50% inhibition of growth): less than 1 ppm

## O=C1ON=C(c2ccc(Cl)cc2)C1=Cc1cccs1 [I-5]
Venturia inaegualis
  efficacy: ≥ 70%
Leptosphaeria nodorum
  ED50 value (Effective Dose which causes 50% inhibition of growth): less than 1 ppm
Plasmopara viticola
  efficacy: ≥ 70%
[3]
  activity (killed): ≥ 80%

## COCc1ccsc1C=C1C(=O)ON=C1c1ccccc1Cl [I-20]
Plasmopara viticola
  efficacy: ≥ 70%

## Cc1ccsc1C=C1C(=O)ON=C1c1ccccc1I [I-107]
Leptosphaeria nodorum
  ED50 value (Effective Dose which causes 50% inhibition of growth): less than 1 ppm

## O=C1ON=C(c2ccc(Cl)cc2)C1=Cc1ccc([N+](=O)[O-])s1 [I-51]
Alternaria solani
  efficacy: ≥ 70%

## O=C1ON=C(c2ccc(OC(F)(F)F)cc2)C1=Cc1cccs1 [I-55]
[1]
  activity (beetle larvae killed): > 80%

## O=C1ON=C(c2ccccc2Cl)C1=Cc1ccc(-c2ccccc2)s1 [I-15]
Leptosphaeria nodorum
  ED50 value (Effective Dose which causes 50% inhibition of growth): less than 1 ppm

## Cc1ccc(C=C2C(=O)ON=C2c2ccccc2Cl)s1 [I-19]
Leptosphaeria nodorum
  ED50 value (Effective Dose which causes 50% inhibition of growth): less than 1 ppm
